Experimental data: US11485769B2, “Peptides and combination of peptides for use in immunotherapy and methods for generating scaffolds for the use against pancreatic cancer and other cancers” (Immatics Biotechnologies GmbH, priority 2015, dated 2022)

Test system: tumors compared to a panel of normal tissues
Assay: Identification and label-free LC-MS quantitation of HLA-presented tumor associated peptides (presentation profiles/scores)
Design: species or system human; key to Peptide Presentation (presentation score): very highly over-presented on tumors compared to a panel of normal tissues (+++); highly over-presented on tumors compared to a panel of normal tissues (++); over-presented on tumors compared to a panel of normal tissues (+)
Conditions: for Peptide Presentation (presentation score): over-presentation on tumors compared to a panel of normal tissues, label-free LC-MS quantitation of HLA peptides

Row | Substance | Peptide Presentation (presentation score) | other results
1 | 4 (ALDPAAQAFLL; listed as Homo sapiens) [compound 4] | +++ | 
2 | 19 (ALWHDAENQTVV; listed as Homo sapiens) [compound 19] | +++ | peptide additionally detected on brain cancers (positive/measured samples): 2/34; peptide additionally detected on breast cancers (positive/measured samples): 1/18; peptide additionally detected on esophageal cancers (positive/measured samples): 1/18; peptide additionally detected on gallbladder or bile duct cancers (positive/measured samples) (gallbladder/bile duct cancers): 2/17; peptide additionally detected on liver cancers (positive/measured samples): 1/21; peptide additionally detected on lung cancers (positive/measured samples): 8/107; peptide additionally found on skin cancers (positive/measured samples): 2/18; peptide additionally detected on urinary bladder cancers (positive/measured samples): 2/15; peptide additionally found on uterus cancers (positive/measured samples): 1/16
3 | 104 (FLQPDLDSL; listed as Homo sapiens) [compound 104] | +++ | 
4 | 160 (VLLPDERTISL; listed as Homo sapiens) [compound 160] | +++ | 
5 | 7 (ALVDIVRSL; listed as Homo sapiens) [compound 7] | +++ | 
6 | 41 (GLLAGNEKLTM; listed as Homo sapiens) [compound 41] | ++ | 
7 | 142 (SLYGYLRGA; listed as Homo sapiens) [compound 142] | +++ | 
8 | 49 (LLDGFPRTV; listed as Homo sapiens) [compound 49] | +++ | 
9 | 138 (NIFPNPEATFV; listed as Homo sapiens) [compound 138] | ++ | 
10 | 154 (KVADLVLML; listed as Homo sapiens) [compound 154] | + | 
11 | 55 (NLAPAPLNA; listed as Homo sapiens) [compound 55] | +++ | 
12 | 5 (ALLTGIISKA; listed as Homo sapiens) [compound 5] | +++ | peptide additionally detected on brain cancers (positive/measured samples): 2/34; peptide additionally detected on breast cancers (positive/measured samples): 1/18; peptide additionally found on colon or rectum cancers (positive/measured samples): 2/29; peptide additionally detected on esophageal cancers (positive/measured samples): 1/18; peptide additionally found on head and neck cancers (positive/measured samples) (head and neck cancers): 1/8; peptide additionally detected on liver cancers (positive/measured samples): 1/21; peptide additionally detected on lung cancers (positive/measured samples): 8/107; peptide additionally found on lymph node cancers (positive/measured samples) (lymph node cancers): 1/20; peptide additionally detected on ovarian cancers (positive/measured samples): 1/20; peptide additionally found on skin cancers (positive/measured samples): 1/18; peptide additionally detected on urinary bladder cancers (positive/measured samples): 2/15; peptide additionally found on uterus cancers (positive/measured samples): 1/16
13 | 10 (VLLDKIKNL; listed as Homo sapiens) [compound 10] | + | 
14 | 172 (TMMSRPPVL; listed as Homo sapiens) [compound 172] | ++ | 
15 | 56 (NLIGVTAEL; listed as Homo sapiens) [compound 56] | +++ | 
16 | 40 (GLAPQIHDL; listed as Homo sapiens) [compound 40] | +++ | 
17 | 25 (LINPNIATV; listed as Homo sapiens) [compound 25] | +++ | 
18 | 116 (SMMDPNHFL; listed as Homo sapiens) [compound 116] | ++ | 
19 | 43 (HLGVKVFSV; listed as Homo sapiens) [compound 43] | +++ | 
20 | 148 (YLHNQGIGV; listed as Homo sapiens) [compound 148] | + | 

Row | Substance | Peptide Presentation (presentation score) | other results
21 | 98 (ALDQKVRSV; listed as Homo sapiens) [compound 98] | + | 
22 | 89 (KLADIQIEQL; listed as Homo sapiens) [compound 89] |  | peptide additionally found on colon or rectum cancers (positive/measured samples): 2/29; peptide additionally found on leukocytic leukemia cancers (positive/measured samples) (leukocytic leukemia cancers): 1/17; peptide additionally detected on lung cancers (positive/measured samples): 4/107; peptide additionally detected on ovarian cancers (positive/measured samples): 4/20; peptide additionally detected on urinary bladder cancers (positive/measured samples): 4/16
23 | 64 (TLFSEPKFAQV; listed as Homo sapiens) [compound 64] | ++ | 
24 | 122 (MQAPRAALVFA; listed as Homo sapiens) [compound 122] | + | 
25 | 94 (VMMEEFVQL; listed as Homo sapiens) [compound 94] | + | 
26 | 162 (NADPQAVTM; listed as Homo sapiens) [compound 162] | +++ | 
27 | 144 (TAVALLRLL; listed as Homo sapiens) [compound 144] | +++ | 
28 | 124 (ALFEESGLIRI; listed as Homo sapiens) [compound 124] | +++ | 
29 | 63 (SVTGIIVGV; listed as Homo sapiens) [compound 63] | +++ | 
30 | 39 (FLTPSIFII; listed as Homo sapiens) [compound 39] | +++ | 
31 | 81 (VVYDDSTGLIRL; listed as Homo sapiens) [compound 81] | +++ | 
32 | 52 (LLSDPIPEV; listed as Homo sapiens) [compound 52] | ++ | 
33 | 82 (ALIAEGIAL; listed as Homo sapiens) [compound 82] | ++ | 
34 | 85 (FLSDGTIISV; listed as Homo sapiens) [compound 85] | ++ | 
35 | 1 (FVDTRTLL; listed as Homo sapiens) [compound 1] | +++ | peptide additionally detected on esophageal cancers (positive/measured samples): 1/17; peptide additionally detected on lung cancers (positive/measured samples): 3/91
36 | 50 (LLFGSDGYYV; listed as Homo sapiens) [compound 50] | +++ | 
37 | 60 (SLWEDYPHV; listed as Homo sapiens) [compound 60] | ++ | 
38 | 176 (YLMPGFIHL; listed as Homo sapiens) [compound 176] | +++ | 
39 | 47 (LIYKDLVSV; listed as Homo sapiens) [compound 47] | + | 
40 | 157 (MLLEIPYMAA; listed as Homo sapiens) [compound 157] | ++ | 
